Experimental data as given in the supplement of paper PMC12823440, “Inhibitors supercharge kinase turnover through native proteolytic circuits” (Nature, 2025).
Structures can show the parent of a compound that is named as a salt. Some of the results follow. The calls rarely recur for the same compound in another form.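 Kinases were expressed as nanoluciferase fusions in K562 cells and luminescence was read every 4 h between 2 and 18 h as percent of control, DMSO set to 100% and a positive control to 0%. A time point counts as decreased when the signal drops significantly (2 sigma). The hit call is the authors' own, does not follow from the count of time points alone, and its rule is not shown.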

Sequences of proteins named here, by UniProt entry; tags and fusion partners are left off. A change or cut given only in a name is not applied to a line headed by its entry.
UniProt Q15303, whole entry R711C: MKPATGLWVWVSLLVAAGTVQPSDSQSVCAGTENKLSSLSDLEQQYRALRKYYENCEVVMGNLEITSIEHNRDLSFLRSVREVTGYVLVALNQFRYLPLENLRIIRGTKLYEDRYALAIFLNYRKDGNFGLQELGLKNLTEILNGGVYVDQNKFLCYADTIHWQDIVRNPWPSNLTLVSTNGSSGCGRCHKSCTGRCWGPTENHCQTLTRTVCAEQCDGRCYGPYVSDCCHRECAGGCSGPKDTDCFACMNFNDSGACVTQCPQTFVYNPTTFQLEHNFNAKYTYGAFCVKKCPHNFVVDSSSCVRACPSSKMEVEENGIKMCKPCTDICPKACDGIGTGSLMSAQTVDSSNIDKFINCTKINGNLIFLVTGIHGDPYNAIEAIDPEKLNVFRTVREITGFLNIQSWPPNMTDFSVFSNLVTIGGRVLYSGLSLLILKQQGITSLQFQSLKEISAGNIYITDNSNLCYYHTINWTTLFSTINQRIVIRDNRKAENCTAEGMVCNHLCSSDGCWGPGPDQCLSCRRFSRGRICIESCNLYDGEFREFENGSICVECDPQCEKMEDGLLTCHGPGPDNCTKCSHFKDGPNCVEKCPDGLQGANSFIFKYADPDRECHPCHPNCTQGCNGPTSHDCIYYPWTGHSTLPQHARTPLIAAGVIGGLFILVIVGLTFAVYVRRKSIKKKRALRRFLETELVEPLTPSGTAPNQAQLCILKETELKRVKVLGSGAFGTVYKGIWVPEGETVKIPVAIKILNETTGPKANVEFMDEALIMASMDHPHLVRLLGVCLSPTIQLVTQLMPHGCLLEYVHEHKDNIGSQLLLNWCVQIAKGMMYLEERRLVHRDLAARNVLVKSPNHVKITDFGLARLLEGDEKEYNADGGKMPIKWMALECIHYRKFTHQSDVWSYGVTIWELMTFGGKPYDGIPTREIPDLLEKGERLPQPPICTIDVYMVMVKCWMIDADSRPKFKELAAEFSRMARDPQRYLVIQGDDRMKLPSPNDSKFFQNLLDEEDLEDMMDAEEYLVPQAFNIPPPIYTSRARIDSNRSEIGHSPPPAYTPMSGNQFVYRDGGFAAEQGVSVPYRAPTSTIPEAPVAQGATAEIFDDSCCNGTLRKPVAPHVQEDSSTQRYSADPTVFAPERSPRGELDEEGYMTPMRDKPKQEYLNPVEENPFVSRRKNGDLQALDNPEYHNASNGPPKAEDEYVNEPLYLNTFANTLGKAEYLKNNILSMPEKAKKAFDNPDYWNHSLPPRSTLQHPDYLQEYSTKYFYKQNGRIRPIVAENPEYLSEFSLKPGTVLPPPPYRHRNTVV
UniProt P11362, whole entry, looked up: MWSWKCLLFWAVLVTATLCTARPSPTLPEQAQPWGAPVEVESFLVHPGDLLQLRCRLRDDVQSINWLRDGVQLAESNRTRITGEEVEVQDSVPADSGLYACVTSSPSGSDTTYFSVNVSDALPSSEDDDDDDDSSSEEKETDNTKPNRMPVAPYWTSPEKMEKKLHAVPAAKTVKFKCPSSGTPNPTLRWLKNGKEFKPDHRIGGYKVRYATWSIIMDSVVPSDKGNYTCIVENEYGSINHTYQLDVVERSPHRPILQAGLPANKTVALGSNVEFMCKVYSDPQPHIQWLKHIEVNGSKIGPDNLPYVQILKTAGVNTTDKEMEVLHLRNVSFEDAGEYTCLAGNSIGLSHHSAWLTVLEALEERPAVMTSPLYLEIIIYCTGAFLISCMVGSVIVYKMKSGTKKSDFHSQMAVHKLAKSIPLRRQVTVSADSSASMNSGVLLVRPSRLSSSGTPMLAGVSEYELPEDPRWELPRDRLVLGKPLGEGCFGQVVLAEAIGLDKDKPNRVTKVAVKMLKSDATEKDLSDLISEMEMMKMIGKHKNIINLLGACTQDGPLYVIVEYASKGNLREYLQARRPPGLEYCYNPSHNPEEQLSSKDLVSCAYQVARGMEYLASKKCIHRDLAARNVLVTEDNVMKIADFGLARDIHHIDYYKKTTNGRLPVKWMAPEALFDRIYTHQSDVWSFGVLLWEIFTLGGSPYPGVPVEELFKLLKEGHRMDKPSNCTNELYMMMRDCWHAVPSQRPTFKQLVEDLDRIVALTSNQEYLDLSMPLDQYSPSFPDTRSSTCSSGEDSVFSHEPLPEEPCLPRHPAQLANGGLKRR
UniProt P21802, whole entry, looked up: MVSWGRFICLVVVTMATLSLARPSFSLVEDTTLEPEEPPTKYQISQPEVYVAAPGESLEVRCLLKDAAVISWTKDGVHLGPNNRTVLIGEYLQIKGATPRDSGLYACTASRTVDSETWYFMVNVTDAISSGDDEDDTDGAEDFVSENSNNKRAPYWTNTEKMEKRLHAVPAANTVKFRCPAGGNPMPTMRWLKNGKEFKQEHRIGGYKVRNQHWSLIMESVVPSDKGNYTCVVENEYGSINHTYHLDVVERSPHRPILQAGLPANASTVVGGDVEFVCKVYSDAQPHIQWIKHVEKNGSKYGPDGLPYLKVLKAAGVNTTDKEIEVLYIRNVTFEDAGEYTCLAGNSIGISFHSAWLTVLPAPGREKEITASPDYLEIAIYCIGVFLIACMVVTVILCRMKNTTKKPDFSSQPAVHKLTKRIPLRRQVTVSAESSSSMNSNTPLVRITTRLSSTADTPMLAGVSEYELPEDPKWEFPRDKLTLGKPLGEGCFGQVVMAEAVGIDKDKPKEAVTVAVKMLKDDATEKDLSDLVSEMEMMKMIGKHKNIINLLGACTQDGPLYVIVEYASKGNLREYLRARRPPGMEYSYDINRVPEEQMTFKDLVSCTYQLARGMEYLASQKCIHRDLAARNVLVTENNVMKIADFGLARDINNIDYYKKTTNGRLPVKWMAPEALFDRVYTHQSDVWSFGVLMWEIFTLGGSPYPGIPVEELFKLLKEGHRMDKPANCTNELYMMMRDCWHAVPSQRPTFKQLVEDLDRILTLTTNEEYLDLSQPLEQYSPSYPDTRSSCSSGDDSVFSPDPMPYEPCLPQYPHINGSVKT
UniProt P22607, whole entry, looked up: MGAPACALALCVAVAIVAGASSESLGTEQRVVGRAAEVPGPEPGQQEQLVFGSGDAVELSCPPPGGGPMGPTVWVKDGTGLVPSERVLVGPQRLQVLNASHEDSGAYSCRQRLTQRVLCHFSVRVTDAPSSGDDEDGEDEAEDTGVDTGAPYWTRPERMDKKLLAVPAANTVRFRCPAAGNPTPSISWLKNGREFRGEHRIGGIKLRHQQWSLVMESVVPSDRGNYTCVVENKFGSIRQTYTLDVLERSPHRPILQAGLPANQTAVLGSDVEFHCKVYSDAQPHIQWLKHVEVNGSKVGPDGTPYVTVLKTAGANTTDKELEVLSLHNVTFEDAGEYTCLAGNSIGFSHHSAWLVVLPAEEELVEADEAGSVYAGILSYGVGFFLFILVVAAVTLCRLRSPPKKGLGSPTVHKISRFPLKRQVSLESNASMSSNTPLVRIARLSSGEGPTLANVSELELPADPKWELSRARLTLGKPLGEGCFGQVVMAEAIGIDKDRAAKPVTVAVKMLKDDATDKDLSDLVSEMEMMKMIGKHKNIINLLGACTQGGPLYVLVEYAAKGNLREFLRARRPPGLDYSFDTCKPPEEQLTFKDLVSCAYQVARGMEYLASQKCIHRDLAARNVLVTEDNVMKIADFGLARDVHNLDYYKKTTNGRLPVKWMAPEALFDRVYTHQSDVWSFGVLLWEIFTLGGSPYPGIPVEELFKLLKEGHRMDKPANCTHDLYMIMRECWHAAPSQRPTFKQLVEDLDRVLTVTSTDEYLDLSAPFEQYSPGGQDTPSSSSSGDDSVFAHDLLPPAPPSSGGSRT
UniProt P36888, whole entry: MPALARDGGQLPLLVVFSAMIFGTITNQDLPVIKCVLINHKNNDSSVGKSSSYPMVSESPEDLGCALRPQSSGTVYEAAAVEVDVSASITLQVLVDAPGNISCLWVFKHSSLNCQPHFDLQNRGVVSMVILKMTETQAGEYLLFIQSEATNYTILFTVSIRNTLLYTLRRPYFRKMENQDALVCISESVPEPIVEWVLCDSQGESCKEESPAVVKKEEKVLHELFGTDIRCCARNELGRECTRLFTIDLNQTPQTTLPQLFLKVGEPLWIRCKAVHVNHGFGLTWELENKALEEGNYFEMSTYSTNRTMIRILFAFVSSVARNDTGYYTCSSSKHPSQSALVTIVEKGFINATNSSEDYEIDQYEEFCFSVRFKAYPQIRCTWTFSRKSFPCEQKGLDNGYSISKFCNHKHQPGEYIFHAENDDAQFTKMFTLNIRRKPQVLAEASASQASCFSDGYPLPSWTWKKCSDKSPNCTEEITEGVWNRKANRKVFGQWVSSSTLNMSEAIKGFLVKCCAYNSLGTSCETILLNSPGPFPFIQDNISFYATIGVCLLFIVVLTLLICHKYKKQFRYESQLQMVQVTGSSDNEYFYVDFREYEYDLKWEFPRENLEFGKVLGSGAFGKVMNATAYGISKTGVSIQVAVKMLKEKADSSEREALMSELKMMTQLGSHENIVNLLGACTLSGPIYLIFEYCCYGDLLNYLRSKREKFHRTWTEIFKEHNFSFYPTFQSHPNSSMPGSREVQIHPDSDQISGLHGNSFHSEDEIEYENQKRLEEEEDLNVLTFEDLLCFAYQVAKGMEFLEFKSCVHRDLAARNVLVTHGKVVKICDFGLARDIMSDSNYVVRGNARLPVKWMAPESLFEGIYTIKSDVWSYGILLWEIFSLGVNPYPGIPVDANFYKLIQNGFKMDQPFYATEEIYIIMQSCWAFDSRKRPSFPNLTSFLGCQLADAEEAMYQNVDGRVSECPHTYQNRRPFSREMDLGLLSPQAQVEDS
UniProt P49840: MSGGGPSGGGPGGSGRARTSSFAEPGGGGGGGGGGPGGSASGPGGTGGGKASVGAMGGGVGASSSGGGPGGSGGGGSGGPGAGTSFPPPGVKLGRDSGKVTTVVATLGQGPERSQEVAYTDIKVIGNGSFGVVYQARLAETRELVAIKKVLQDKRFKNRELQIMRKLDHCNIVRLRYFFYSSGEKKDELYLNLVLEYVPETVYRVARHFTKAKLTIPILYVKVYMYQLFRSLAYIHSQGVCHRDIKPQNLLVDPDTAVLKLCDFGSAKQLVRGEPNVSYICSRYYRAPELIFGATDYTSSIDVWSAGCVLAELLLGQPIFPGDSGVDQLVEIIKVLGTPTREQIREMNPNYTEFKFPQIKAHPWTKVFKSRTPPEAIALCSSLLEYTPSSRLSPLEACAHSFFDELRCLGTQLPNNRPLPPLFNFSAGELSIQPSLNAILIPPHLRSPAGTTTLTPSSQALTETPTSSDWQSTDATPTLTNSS
UniProt P14616: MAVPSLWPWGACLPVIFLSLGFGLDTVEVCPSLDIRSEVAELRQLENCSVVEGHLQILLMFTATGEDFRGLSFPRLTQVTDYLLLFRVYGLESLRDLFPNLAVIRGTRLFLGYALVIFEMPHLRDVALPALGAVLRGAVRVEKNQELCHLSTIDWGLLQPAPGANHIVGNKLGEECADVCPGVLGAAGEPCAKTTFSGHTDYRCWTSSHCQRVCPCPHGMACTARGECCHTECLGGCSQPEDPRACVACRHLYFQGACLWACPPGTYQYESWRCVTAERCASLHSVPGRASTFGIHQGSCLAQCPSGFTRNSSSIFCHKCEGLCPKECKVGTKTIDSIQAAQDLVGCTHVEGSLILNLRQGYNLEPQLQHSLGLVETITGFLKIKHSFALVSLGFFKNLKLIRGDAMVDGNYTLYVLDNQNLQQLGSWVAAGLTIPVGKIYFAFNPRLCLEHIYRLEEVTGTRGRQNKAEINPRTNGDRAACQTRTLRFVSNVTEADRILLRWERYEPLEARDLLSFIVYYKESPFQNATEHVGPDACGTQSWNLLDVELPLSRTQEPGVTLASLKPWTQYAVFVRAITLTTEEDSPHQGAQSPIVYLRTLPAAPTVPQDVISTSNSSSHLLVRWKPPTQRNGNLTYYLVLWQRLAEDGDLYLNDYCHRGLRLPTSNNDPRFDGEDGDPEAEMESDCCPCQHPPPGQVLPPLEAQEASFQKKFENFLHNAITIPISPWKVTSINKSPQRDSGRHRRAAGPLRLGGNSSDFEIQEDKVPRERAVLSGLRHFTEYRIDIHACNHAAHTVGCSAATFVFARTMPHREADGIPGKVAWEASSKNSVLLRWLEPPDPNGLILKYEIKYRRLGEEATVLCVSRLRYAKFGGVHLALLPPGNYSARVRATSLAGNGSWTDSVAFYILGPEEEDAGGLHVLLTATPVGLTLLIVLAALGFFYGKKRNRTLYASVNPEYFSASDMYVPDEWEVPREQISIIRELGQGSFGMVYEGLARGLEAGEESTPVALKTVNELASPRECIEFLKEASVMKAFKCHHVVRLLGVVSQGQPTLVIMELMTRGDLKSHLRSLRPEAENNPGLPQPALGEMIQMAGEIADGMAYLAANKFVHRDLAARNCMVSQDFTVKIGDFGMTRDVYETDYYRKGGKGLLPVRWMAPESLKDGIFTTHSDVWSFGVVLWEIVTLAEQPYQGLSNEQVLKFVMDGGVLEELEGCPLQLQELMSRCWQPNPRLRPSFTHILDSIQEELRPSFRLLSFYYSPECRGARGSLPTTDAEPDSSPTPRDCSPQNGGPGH

Assays:
Experiment in all cases: kinase-Nluc reporter destabilization hit call (1 = scored as downregulated) (binary); higher = compound decreases kinase abundance
Settings in all cases: K562; 2-18 h
EGFR = EGFR (UniProt P00533)
EGFR_G719S = EGFR_G719S (UniProt P00533)
EGFR_G719S_T790M = EGFR_G719S_T790M (UniProt P00533)
EGFR_L718V = EGFR_L718V (UniProt P00533)
EGFR_L858R = EGFR_L858R (UniProt P00533)
EGFR_L861Q = EGFR_L861Q (UniProt P00533)
EGFR_T790M = EGFR_T790M (UniProt P00533)
EPHA2 = EPHA2 (UniProt P29317)
ERBB3 = ERBB3 (UniProt P21860)
[1] = target: ERBB4_R711C (clone: ERBB4_mut) (UniProt Q15303)
ERN1 = ERN1 (UniProt O75460)
FGFR1 = FGFR1 (UniProt P11362)
FGFR2 = FGFR2 (UniProt P21802)
FGFR3 = FGFR3 (UniProt P22607)
FGR = FGR (UniProt P09769)
FLT3 = FLT3 (UniProt P36888)
FYN = FYN (UniProt P06241)
GSK3A = GSK3A (UniProt P49840)
HER2 = HER2 (UniProt P04626)
INSRR = INSRR (UniProt P14616)

Measured: kinase-Nluc reporter destabilization hit call

CS(=O)(=O)c1ccc(-c2cnc(N)c(-c3ccc(C(F)(F)F)nc3)c2)cc1 (10 µM)
inactive: EGFR 0 | EGFR_G719S 0 | EGFR_G719S_T790M 0 | EGFR_L718V 0 | EGFR_L858R 0 | EGFR_L861Q 0 | EGFR_T790M 0 | EPHA2 = 0 | ERBB3 = 0 | [1] 0 | ERN1 = 0 | FGFR1 = 0 | FGFR2 = 0 | FGFR3 = 0 | FGR 0 | FLT3 = 0 | FYN 0 | GSK3A 0 | HER2 = 0 | INSRR 0

O=C(Nc1nc2ccccc2[nH]1)c1cccc([N+](=O)[O-])c1 [IRAK-4 protein kinase inhibitor 2] (10 µM)
inactive: EGFR 0 | EGFR_G719S 0 | EGFR_G719S_T790M 0 | EGFR_L718V 0 | EGFR_L858R 0 | EGFR_L861Q 0 | EGFR_T790M 0 | EPHA2 = 0 | ERBB3 = 0 | [1] 0 | ERN1 = 0 | FGFR1 = 0 | FGFR2 = 0 | FGFR3 = 0 | FGR 0 | FLT3 = 0 | FYN 0 | GSK3A 0 | HER2 = 0 | INSRR 0

O=C1O[C@H]([C@@H](O)CO)C(O)=C1OP(=O)(O)O [2-Phospho-L-ascorbic acid (trisodium)] (10 µM)
inactive: EGFR 0 | EGFR_G719S 0 | EGFR_G719S_T790M 0 | EGFR_L718V 0 | EGFR_L858R 0 | EGFR_L861Q 0 | EGFR_T790M 0 | EPHA2 = 0 | ERBB3 = 0 | [1] 0 | ERN1 = 0 | FGFR1 = 0 | FGFR2 = 0 | FGFR3 = 0 | FGR 0 | FLT3 = 0 | FYN 0 | GSK3A 0 | HER2 = 0 | INSRR 0

O=C(NCc1cccc(O)c1)Nc1nc(-c2ccncc2)cs1 (10 µM)
inactive: EGFR 0 | EGFR_G719S 0 | EGFR_G719S_T790M 0 | EGFR_L718V 0 | EGFR_L858R 0 | EGFR_L861Q 0 | EGFR_T790M 0 | EPHA2 = 0 | ERBB3 = 0 | [1] 0 | ERN1 = 0 | FGFR1 = 0 | FGFR2 = 0 | FGFR3 = 0 | FGR 0 | FLT3 = 0 | FYN 0 | GSK3A 0 | HER2 = 0 | INSRR 0

CC(C)=CCc1c(-c2ccc(O)cc2O)oc2c3c(cc(O)c2c1=O)OC(C)(C)C=C3 [Morusin] (2.5 µM)
inactive: EGFR 0 | EGFR_G719S 0 | EGFR_G719S_T790M 0 | EGFR_L718V 0 | EGFR_L858R 0 | EGFR_L861Q 0 | EGFR_T790M 0 | EPHA2 = 0 | ERBB3 = 0 | [1] 0 | ERN1 = 0 | FGFR1 = 0 | FGFR2 = 0 | FGFR3 = 0 | FGR 0 | FLT3 = 0 | FYN 0 | GSK3A 0 | HER2 = 0 | INSRR 0

CC(C)=CC(=O)O[C@H]1Cc2cc3ccc(=O)oc3cc2OC1(C)C [Decursin] (10 µM)
inactive: EGFR 0 | EGFR_G719S 0 | EGFR_G719S_T790M 0 | EGFR_L718V 0 | EGFR_L858R 0 | EGFR_L861Q 0 | EGFR_T790M 0 | EPHA2 = 0 | ERBB3 = 0 | [1] 0 | ERN1 = 0 | FGFR1 = 0 | FGFR2 = 0 | FGFR3 = 0 | FGR 0 | FLT3 = 0 | FYN 0 | GSK3A 0 | HER2 = 0 | INSRR 0

c1cc(NC2CCNCC2)nc(-c2cnc3ccccn23)c1 [IRAK inhibitor 1] (10 µM)
inactive: EGFR 0 | EGFR_G719S 0 | EGFR_G719S_T790M 0 | EGFR_L718V 0 | EGFR_L858R 0 | EGFR_L861Q 0 | EGFR_T790M 0 | EPHA2 = 0 | ERBB3 = 0 | [1] 0 | ERN1 = 0 | FGFR1 = 0 | FGFR2 = 0 | FGFR3 = 0 | FGR 0 | FLT3 = 0 | FYN 0 | GSK3A 0 | HER2 = 0 | INSRR 0

CC1(C)Cc2c(sc(NC(=S)NC(=O)c3ccccc3)c2C(=O)O)CO1 (10 µM)
inactive: EGFR 0 | EGFR_G719S 0 | EGFR_G719S_T790M 0 | EGFR_L718V 0 | EGFR_L858R 0 | EGFR_L861Q 0 | EGFR_T790M 0 | EPHA2 = 0 | ERBB3 = 0 | [1] 0 | ERN1 = 0 | FGFR1 = 0 | FGFR2 = 0 | FGFR3 = 0 | FGR 0 | FLT3 = 0 | FYN 0 | GSK3A 0 | HER2 = 0 | INSRR 0

CCOC(=O)N1C/C(=C/c2ccccc2F)C(=O)/C(=C\c2ccccc2F)C1 (2.5 µM)
inactive: EGFR 0 | EGFR_G719S 0 | EGFR_G719S_T790M 0 | EGFR_L718V 0 | EGFR_L858R 0 | EGFR_L861Q 0 | EGFR_T790M 0 | EPHA2 = 0 | ERBB3 = 0 | [1] 0 | ERN1 = 0 | FGFR1 = 0 | FGFR2 = 0 | FGFR3 = 0 | FGR 0 | FLT3 = 0 | FYN 0 | GSK3A 0 | HER2 = 0 | INSRR 0

CC/C(=N\NC(=O)c1ccnc(NCCCN2CCOCC2)c1)c1ccc(Cl)cc1O (2.5 µM)
inactive: EGFR 0 | EGFR_G719S 0 | EGFR_G719S_T790M 0 | EGFR_L718V 0 | EGFR_L858R 0 | EGFR_L861Q 0 | EGFR_T790M 0 | EPHA2 = 0 | ERBB3 = 0 | [1] 0 | ERN1 = 0 | FGFR1 = 0 | FGFR2 = 0 | FGFR3 = 0 | FGR 0 | FLT3 = 0 | FYN 0 | GSK3A 0 | HER2 = 0 | INSRR 0

COc1cc(N2CCOCC2)ccc1Nc1ncc(Cl)c(Nc2ccccc2NS(C)(=O)=O)n1 (2.5 µM)
inactive: EGFR 0 | EGFR_G719S 0 | EGFR_G719S_T790M 0 | EGFR_L718V 0 | EGFR_L858R 0 | EGFR_L861Q 0 | EGFR_T790M 0 | EPHA2 = 0 | ERBB3 = 0 | [1] 0 | ERN1 = 0 | FGFR1 = 0 | FGFR2 = 0 | FGFR3 = 0 | FGR 0 | FLT3 = 0 | FYN 0 | GSK3A 0 | HER2 = 0 | INSRR 0

Four compounds out of the list, sorted by SMILES length, ascending.
c1cc(NC2CCNCC2)nc(-c2cnc3ccccn23)c1 [IRAK inhibitor 1] (10 µM)
inactive: EGFR 0 | EGFR_G719S 0 | EGFR_G719S_T790M 0 | EGFR_L718V 0 | EGFR_L858R 0 | EGFR_L861Q 0 | EGFR_T790M 0 | EPHA2 = 0 | ERBB3 = 0 | [1] 0 | ERN1 = 0 | FGFR1 = 0 | FGFR2 = 0 | FGFR3 = 0 | FGR 0 | FLT3 = 0 | FYN 0 | GSK3A 0 | HER2 = 0 | INSRR 0

O=C(NCc1cccc(O)c1)Nc1nc(-c2ccncc2)cs1 (10 µM)
inactive: EGFR 0 | EGFR_G719S 0 | EGFR_G719S_T790M 0 | EGFR_L718V 0 | EGFR_L858R 0 | EGFR_L861Q 0 | EGFR_T790M 0 | EPHA2 = 0 | ERBB3 = 0 | [1] 0 | ERN1 = 0 | FGFR1 = 0 | FGFR2 = 0 | FGFR3 = 0 | FGR 0 | FLT3 = 0 | FYN 0 | GSK3A 0 | HER2 = 0 | INSRR 0

CC(C)=CC(=O)O[C@H]1Cc2cc3ccc(=O)oc3cc2OC1(C)C [Decursin] (10 µM)
inactive: EGFR 0 | EGFR_G719S 0 | EGFR_G719S_T790M 0 | EGFR_L718V 0 | EGFR_L858R 0 | EGFR_L861Q 0 | EGFR_T790M 0 | EPHA2 = 0 | ERBB3 = 0 | [1] 0 | ERN1 = 0 | FGFR1 = 0 | FGFR2 = 0 | FGFR3 = 0 | FGR 0 | FLT3 = 0 | FYN 0 | GSK3A 0 | HER2 = 0 | INSRR 0

CS(=O)(=O)c1ccc(-c2cnc(N)c(-c3ccc(C(F)(F)F)nc3)c2)cc1 (10 µM)
inactive: EGFR 0 | EGFR_G719S 0 | EGFR_G719S_T790M 0 | EGFR_L718V 0 | EGFR_L858R 0 | EGFR_L861Q 0 | EGFR_T790M 0 | EPHA2 = 0 | ERBB3 = 0 | [1] 0 | ERN1 = 0 | FGFR1 = 0 | FGFR2 = 0 | FGFR3 = 0 | FGR 0 | FLT3 = 0 | FYN 0 | GSK3A 0 | HER2 = 0 | INSRR 0

Remaining list, next part

O=C1NC(=O)/C(=C/c2ccc3nccc(-c4ccncc4)c3c2)S1 (10 µM)
inactive: EGFR 0 | EGFR_G719S 0 | EGFR_G719S_T790M 0 | EGFR_L718V 0 | EGFR_L858R 0 | EGFR_L861Q 0 | EGFR_T790M 0 | EPHA2 = 0 | ERBB3 = 0 | [1] 0 | ERN1 = 0 | FGFR1 = 0 | FGFR2 = 0 | FGFR3 = 0 | FGR 0 | FLT3 = 0 | FYN 0 | GSK3A 0 | HER2 = 0 | INSRR 0

COc1cc(N(C)CCN(C)C)c(N)cc1Nc1nccc(-c2cn(C)c3ccccc23)n1 [Mutated EGFR-IN-1] (10 µM)
inactive: EGFR 0 | EGFR_G719S 0 | EGFR_G719S_T790M 0 | EGFR_L718V 0 | EGFR_L858R 0 | EGFR_L861Q 0 | EGFR_T790M 0 | EPHA2 = 0 | ERBB3 = 0 | [1] 0 | ERN1 = 0 | FGFR1 = 0 | FGFR2 = 0 | FGFR3 = 0 | FGR 0 | FLT3 = 0 | FYN 0 | GSK3A 0 | HER2 = 0 | INSRR 0

CNC(=O)c1cc2c(Oc3ccc(NC(=S)NC(=O)Cc4ccccc4)cc3F)ccnc2cc1OC [TAS-115 mesylate] (10 µM)
inactive: EGFR 0 | EGFR_G719S 0 | EGFR_G719S_T790M 0 | EGFR_L718V 0 | EGFR_L858R 0 | EGFR_L861Q 0 | EGFR_T790M 0 | EPHA2 = 0 | ERBB3 = 0 | [1] 0 | ERN1 = 0 | FGFR1 = 0 | FGFR2 = 0 | FGFR3 = 0 | FGR 0 | FLT3 = 0 | FYN 0 | GSK3A 0 | HER2 = 0 | INSRR 0

O[C@@H]1CO[C@H]2[C@@H]1OC[C@H]2Oc1nc2nc(-c3ccc(-c4ccccc4)cc3)c(Cl)cc2[nH]1 (10 µM)
inactive: EGFR 0 | EGFR_G719S 0 | EGFR_G719S_T790M 0 | EGFR_L718V 0 | EGFR_L858R 0 | EGFR_L861Q 0 | EGFR_T790M 0 | EPHA2 = 0 | ERBB3 = 0 | [1] 0 | ERN1 = 0 | FGFR1 = 0 | FGFR2 = 0 | FGFR3 = 0 | FGR 0 | FLT3 = 0 | FYN 0 | GSK3A 0 | HER2 = 0 | INSRR 0
